Out of some 320,000 compounds screened, about 2,100 (0.66%) were called active. This list was built around the results that the source calls inconclusive (neither active nor inactive); the mix of calls is not that of the screen. Calls come from the whole dose curve; as a rule, active = well fitted inhibition curve with a large enough effect in the signal ratio, with a control signal flat (not every such curve was filed as active); inconclusive = small, poorly fitted or top-dose-only effect, or effect the other way, or a change in a side signal; inactive = flat fitted curve, though single readings scatter; the % refers to the signal ratio. Potencies of inconclusive entries are doubtful fits and often do not repeat.
Experiment: qHTS Assay for Lipid Storage Modulators in Drosophila S3 Cells
Settings: BODIPY lipid droplet fluorescence, 18-24 h, cells fed with added oleic acid; lipid storage change, negative = inhibition: at 46.1 µM (top of the series) unless noted
Summary of the method: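 Laser-scanning cytometry quantifies lipid droplet accumulation (500–530 nm total intensity; droplet/cell object ratio) in oleic acid-fed (400 uM added) Drosophila S3 cells treated with a concentration series. 20 uM Triacsin C defined 100% inhibition.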
% is set by controls: 0 for no effect and ±100 for the full control effect; potency is the fitted concentration of half-maximal effect.

| Structure (SMILES) | Potency | lipid storage change, negative = inhibition | outcome |
| --- | --- | --- | --- |
| COc1ccccc1NS(=O)(=O)c1ccc(C)c(C(=O)NCC(c2ccco2)N2CCCCC2)c1 (stereo not given) | inconclusive: 29.1 µM [activator, single point] |  |  |
| COc1cccc(C(=O)COc2ccccc2N2C(=O)C3C4C=CC(C4)C3C2=O)c1 (stereo not given) |  | inconclusive: -27.5% |  |
| COc1ccc(Nc2nccc(N(C)C)c2C#N)cc1 |  | inconclusive: 18.2% |  |
| COc1ccccc1N(C)S(=O)(=O)c1ccc(C(=O)NCC2CCCCC2)cc1 |  | inconclusive: -49% |  |
| COc1ccc(CSc2nc(O)cc(=O)n2CC(C)C)cc1F | inconclusive: 18.4 µM [activator, single point] |  |  |
| Cc1c(Cl)cccc1NC(=O)Cn1c(CCC(=O)O)ccc1-c1ccccc1 | inconclusive: 16.4 µM [falling, partial curve] |  |  |
| c1ccc(Cn2c(SCc3nc4ccccc4s3)nnc2-c2ccco2)cc1 |  | inconclusive: 23.7% |  |
| CC1CN(C(=O)c2cc(S(=O)(=O)N3CCCC3)ccc2Cl)CC(C)O1 (stereo not given) | inconclusive: 6.51 µM [activator, single point] |  |  |
| CCS(=O)(=O)n1nc(NCc2cccc(OC)c2)nc1NCc1cccc(OC)c1 | inconclusive: 10.3 µM [activator, partial curve] |  |  |
| COc1cc(CNCc2ccccn2)ccc1OCc1ccc(Cl)cc1Cl | inconclusive: 1.64 µM [falling, partial curve] |  |  |
| Cc1ccc(C(=O)c2no[n+]([O-])c2C(=O)c2ccc(C)cc2)cc1 |  | inconclusive: 8.11% |  |
| COc1ccc(C(=O)NCC(=O)N2CCN(c3ccc(F)cc3)CC2)cc1 |  | inconclusive: 9.08% |  |
| CCOc1ccccc1NC(=O)c1nnn(-c2ccc3c(c2)OCCO3)c1N |  | inconclusive: 14.2% |  |
| CC(NC(=O)CN(c1cccc(C(F)(F)F)c1)S(C)(=O)=O)c1ccccc1 (stereo not given) | inconclusive: 1.64 µM [falling, partial curve, poor fit] |  |  |
| Cc1cc(=O)n2[nH]c(N)c(N=Nc3ccccc3F)c2n1 |  | inconclusive: -0.197% |  |
| Cc1ccc(S(=O)(=O)N(CC(=O)N=Nc2c(O)[nH]c3ccccc23)c2ccc(C)c(C)c2)cc1 |  | inconclusive: 12.8% |  |
| O=C(CSc1ccccn1)Nc1nc2ccc(Br)cc2s1 |  | inconclusive: 34.1% |  |
| CC(=O)Nc1ccc(N(CC(=O)NC2CCCC2)C(=O)CCC(=O)Nc2cc(C)on2)cc1 |  | inconclusive: 1.67% |  |
| CCOc1ccc(NC(=O)CN2CCCC2c2cccs2)cc1S(=O)(=O)N1CCCC1 (stereo not given) | inconclusive: 4.61 µM [falling, full curve, poor fit] |  |  |
| CCOC(=O)C1=C(C)NC(=O)NC1c1ccc(C)o1 (stereo not given) | inconclusive: 0.13 µM [activator, full curve, poor fit] |  |  |

An excerpt of these results, in CSV form.
Structure (SMILES),Potency,"lipid storage change, negative = inhibition",outcome
CC1CN(C(=O)c2cc(S(=O)(=O)N3CCCC3)ccc2Cl)CC(C)O1 (stereo not given),"inconclusive: 6.51 µM [activator, single point]",,
CCS(=O)(=O)n1nc(NCc2cccc(OC)c2)nc1NCc1cccc(OC)c1,"inconclusive: 10.3 µM [activator, partial curve]",,

2 records drawn at random from the list so far, as already listed:

| Structure (SMILES) | Potency | lipid storage change, negative = inhibition | outcome |
| --- | --- | --- | --- |
| COc1ccccc1N(C)S(=O)(=O)c1ccc(C(=O)NCC2CCCCC2)cc1 |  | inconclusive: -49% |  |
| COc1ccccc1NS(=O)(=O)c1ccc(C)c(C(=O)NCC(c2ccco2)N2CCCCC2)c1 (stereo not given) | inconclusive: 29.1 µM [activator, single point] |  |  |

(cont.)

| Structure (SMILES) | Potency | lipid storage change, negative = inhibition | outcome |
| --- | --- | --- | --- |
| CC(C)(C)c1ccc(OC(=O)c2ccccc2)cc1 |  | inconclusive: -3.6% |  |
| Cc1cc(=O)oc2cc(OC(=O)CCN3C(=O)c4ccccc4C3=O)ccc12 |  | inconclusive: 35.7% |  |
| Cc1ccc(NC(=O)c2cccs2)cc1 |  |  | inactive [at 46.1 µM] |
| CCN(CC)C(=O)CSc1nnc(-c2c[nH]c3ccccc23)o1 |  | inconclusive: -93.9% |  |
| O=S(=O)(Cc1ccccc1)c1cnc2ccccc2n1 | inconclusive: 0.0052 µM [falling, full curve, poor fit] |  |  |
| COc1cccc(/C=C2\SC(=S)N(C(C)C(=O)NC3C=CS(=O)(=O)C3)C2=O)c1 (stereo not given) |  | inconclusive: -17.5% |  |
| CC(C)CC(=O)N1CCN(C(=O)c2ccco2)CC1 | inconclusive: 32.6 µM [falling, single point] |  |  |
| CNc1c(NS(=O)(=O)c2ccc(Cl)cc2)c(=O)oc2ccccc12 |  | inconclusive: -12.9% |  |
| CC1CCc2ccccc2N1C(=N)N(C)C (stereo not given) |  | inconclusive: 18.1% |  |
| C/C(N)=C(/C#N)C(=O)COC(=O)CC1CCCC1 |  | inconclusive: 10% |  |
| COc1ccc(N2CC(C(=O)Nc3c4c(nn3-c3ccccc3)CS(=O)(=O)C4)CC2=O)cc1 (stereo not given) |  | inconclusive: 25.1% |  |
| CC(C)Cc1cc(C(=O)NCc2cccnc2)no1 |  | inconclusive: 38.2% |  |
| Cc1ccnc(SC2CC(=O)N(c3ccc(Cl)cc3)C2=O)n1 (stereo not given) |  | inconclusive: 3.67% |  |
| CCn1c(=O)c(CCC(=O)NCCN2CCOCC2)c(C)c2c(C)nn(-c3ccccc3)c21 |  | inconclusive: -3.24% |  |
| CN(C)CCCNC(=O)/C(=C\c1ccc(-c2cccc([N+](=O)[O-])c2)o1)NC(=O)c1ccccc1 |  | inconclusive: -3.8% |  |
| COc1ccccc1CNC(=O)CCC(=O)N1CCOc2ccc(Cl)cc21 |  | inconclusive: -39.9% |  |
| COc1cccc(CC(=O)OCC(=O)NC2(C#N)CCCCC2)c1 | inconclusive: 29.1 µM [falling, single point] |  |  |
| COc1ccc(C)cc1Nc1n[n+](C)c(-c2ccc(O)cc2O)s1 |  | inconclusive: -3.44% |  |
| CCCCc1ccc(NC(=S)NCCCN2CCOCC2)cc1 |  | inconclusive: 127% |  |
| CC1CC2=C(C(=O)O1)C(c1ccccc1)Nc1ccccc1N2 (stereo not given) |  | inconclusive: -7.99% |  |

| Structure (SMILES) | Potency | lipid storage change, negative = inhibition | outcome |
| --- | --- | --- | --- |
| COc1cc(/C=N\NC(=O)CC(=O)NCCc2ccccc2)ccc1O |  | inconclusive: -19.1% |  |
| COCCn1c(C)cc(C(=O)COc2nc3ccccc3nc2C)c1C | inconclusive: 2.91 µM [activator, partial curve] |  |  |
| CNC(=O)COC(=O)COc1ccc2c(C)cc(=O)oc2c1 | inconclusive: 1.3 µM [falling, full curve, poor fit] |  |  |
| O=C(NNC(=S)NC1CCCCC1)c1cccs1 |  | inconclusive: 6.21% |  |
| Cn1cccc1/C=N/N1CCN(c2ccccc2)CC1 |  | inconclusive: 0.941% |  |
| O=C(Cc1cccs1)N1CCN(c2cccc(Cl)c2)CC1 |  | inconclusive: -0.16% |  |
| CCCCNC(=O)c1onc(CSc2cccc(OC)c2)c1C(=O)O |  | inconclusive: -21% |  |
| O=C(Nc1ccc2c(c1)OCO2)c1cnn2c(C(F)(F)F)cc(-c3ccco3)nc12 |  | inconclusive: -11.9% |  |
| Cc1cc(/C([O-])=C(/C(=S)Nc2ccc(F)cc2)[n+]2ccccc2)c(C)n1-c1ccc(F)cc1 |  | inconclusive: -27.3% |  |
| COc1ccc(CNc2ccccc2SC)cc1OC |  | inconclusive: -4.38% |  |
| CCOC(=O)c1c(NC(=O)CSc2nnc(N)s2)sc(C)c1-c1ccc(C)cc1 | inconclusive: 20.6 µM [falling, single point] |  |  |
| COc1ccc(/C=C(/NC(=O)c2ccccc2)C(=O)N2CCOCC2)cc1OC |  | inconclusive: 36% |  |
| O=[N+]([O-])c1ccc(N/N=C/c2ccccc2)cc1 |  | inconclusive: -16.3% |  |
| COc1ccc(Cl)cc1CSc1ncn[nH]1 |  | inconclusive: 12.3% |  |
| Cc1cc(C)cc(N(CC(=O)NCC2CCCO2)C(=O)CCC(=O)Nc2nccs2)c1 (stereo not given) |  | inconclusive: -48.8% |  |
| CCOC(=O)C1CCN(S(=O)(=O)Cc2ccccc2)C1=O (stereo not given) | inconclusive: 29.1 µM [falling, single point] |  |  |
| Cc1n[nH]c(=O)c2c(NC(=O)CSc3c(Cl)cccc3Cl)oc(C)c12 |  | inconclusive |  |
| COc1ccccc1NC(=O)Nc1cccnc1 |  | inconclusive: 14% |  |
| CC(=O)c1ccc(Nc2ccc([N+](=O)[O-])c3nonc23)cc1 |  | inconclusive: -77.1% |  |
| CN1CCN(C(=S)SCC(=O)N2CCCc3ccccc32)CC1 | inconclusive: 0.0065 µM [activator, full curve, poor fit] |  |  |

Reference: PubChem BioAssay AID2685 (National Center for Advancing Translational Sciences (NCATS), 2010)
